Consider four molecules from article PMC5648754, “CryoEM structure of Saccharomyces cerevisiae U1 snRNP offers insight into alternative splicing” (Nature Communications, 2017).

Amino acid sequences for entries named in this document (tags omitted). A change or cut given only in a name is not applied to a line headed by its entry. Residues count along the entry.
UniProt P09234, residues 1-61: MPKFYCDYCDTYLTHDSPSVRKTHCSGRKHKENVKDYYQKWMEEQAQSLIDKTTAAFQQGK

The target of assay [1] is human U1C-NTD (residues 1-61), His-tagged (human) (UniProt P09234). The assay can be described thus: pull-down; His-tagged human U1C FL or NTD on nickel resin (5 ul) incubated with 1.5 ug purified Flag-PrpF39; 50 mM Hepes pH 6.9, 50 mM NaCl, 4 °C, 2 h; anti-Flag western blot; both purified. In general terms: A western blot detects proteins with antibodies after separation by electrophoresis.

For assay [2], the target named is T1, yeast Snu71 (S. cerevisiae), P53207.
T1 chain: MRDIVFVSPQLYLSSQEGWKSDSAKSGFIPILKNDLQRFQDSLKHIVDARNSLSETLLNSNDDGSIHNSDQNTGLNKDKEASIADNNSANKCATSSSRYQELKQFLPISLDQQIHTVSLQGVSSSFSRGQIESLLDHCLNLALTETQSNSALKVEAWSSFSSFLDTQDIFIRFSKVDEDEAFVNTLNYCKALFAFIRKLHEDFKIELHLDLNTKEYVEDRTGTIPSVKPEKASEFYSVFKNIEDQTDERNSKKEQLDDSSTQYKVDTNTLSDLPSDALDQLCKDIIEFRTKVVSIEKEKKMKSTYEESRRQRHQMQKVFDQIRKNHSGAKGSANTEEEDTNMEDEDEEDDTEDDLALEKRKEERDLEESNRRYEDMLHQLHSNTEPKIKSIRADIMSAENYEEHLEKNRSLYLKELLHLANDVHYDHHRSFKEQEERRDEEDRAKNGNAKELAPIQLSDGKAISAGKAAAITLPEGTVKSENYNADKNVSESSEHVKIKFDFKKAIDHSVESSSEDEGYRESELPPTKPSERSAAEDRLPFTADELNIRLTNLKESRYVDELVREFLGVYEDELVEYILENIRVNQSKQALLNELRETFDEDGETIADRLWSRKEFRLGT
The assay can be described thus: cross-linking; purified yeast U1 snRNP cross-linked with 100 uM BS3, 30 min, room temperature; trypsin digest, mass spectrometry; both purified. Conditions: remark: other sources report otherwise.

For assay [3], the target named is T2, yeast Prp40 with 2x ProtA tag, co-expressed from plasmid (S. cerevisiae) (UniProt P33203).
T2 sequence: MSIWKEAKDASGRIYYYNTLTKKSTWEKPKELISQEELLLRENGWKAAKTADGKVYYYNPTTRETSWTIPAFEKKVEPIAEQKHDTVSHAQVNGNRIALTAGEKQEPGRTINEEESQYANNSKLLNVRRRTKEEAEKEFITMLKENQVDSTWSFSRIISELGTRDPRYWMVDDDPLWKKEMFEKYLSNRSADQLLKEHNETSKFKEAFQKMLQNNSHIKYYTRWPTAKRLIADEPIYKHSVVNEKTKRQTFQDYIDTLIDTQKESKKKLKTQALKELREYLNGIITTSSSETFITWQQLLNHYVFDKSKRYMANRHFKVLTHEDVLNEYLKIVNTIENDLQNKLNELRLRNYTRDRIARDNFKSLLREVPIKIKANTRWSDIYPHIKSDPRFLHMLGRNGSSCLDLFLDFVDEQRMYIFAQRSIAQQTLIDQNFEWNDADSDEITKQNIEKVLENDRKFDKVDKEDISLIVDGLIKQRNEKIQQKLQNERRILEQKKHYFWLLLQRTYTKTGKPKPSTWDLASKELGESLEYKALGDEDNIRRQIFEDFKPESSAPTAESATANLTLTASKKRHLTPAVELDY
The assay can be described thus: co-purification of co-expressed proteins; Prp40 + Snu71 or Prp40 + Snu71 + Luc7 co-expressed in yeast BCY123; purified by the 2x ProtA tag on Prp40 on IgG Sepharose, released by TEV, Superose 6 gel filtration. In general terms: Size exclusion chromatography separates by hydrodynamic size, large species first.

No constants are given. Whether binding was seen depends on the method and setting. Some results given as binding are weak or reduced against the parent protein; the word gives no strength. Tags and fused reporters may be left off the sequences shown.

B1: human PrpF39, Flag-tagged (second copy HA-tagged in the co-IP) (natural protein, UniProt Q86UA1 1-669, looked up)
chain: MQNSHMDEYRNSSNGSTGNSSEVVVEHPTDFSTEIMNVTEMEQSPDDSPNVNASTEETEMASAVDLPVTLTETEANFPPEYEKFWKTVENNPQDFTGWVYLLQYVEQENHLMAARKAFDRFFIHYPYCYGYWKKYADLEKRHDNIKPSDEVYRRGLQAIPLSVDLWIHYINFLKETLDPGDPETNNTIRGTFEHAVLAAGTDFRSDRLWEMYINWENEQGNLREVTAIYDRILGIPTQLYSHHFQRFKEHVQNNLPRDLLTGEQFIQLRRELASVNGHSGDDGPPGDDLPSGIEDITDPAKLITEIENMRHRIIEIHQEMFNYNEHEVSKRWTFEEGIKRPYFHVKPLEKAQLKNWKEYLEFEIENGTHERVVVLFERCVISCALYEEFWIKYAKYMENHSIEGVRHVFSRACTIHLPKKPMVHMLWAAFEEQQGNINEARNILKTFEECVLGLAMVRLRRVSLERRHGNLEEAEHLLQDAIKNAKSNNESSFYAVKLARHLFKIQKNLPKSRKVLLEAIERDKENTKLYLNLLEMEYSGDLKQNEENILNCFDKAVHGSLPIKMRITFSQRKVEFLEDFGSDVNKLLNAYDEHQTLLKEQDSLKRKAENGSEEPEEKKAHTEDTTSSSTQMIDGDLQANQAVYNYSAWYQYNYQNPWNYGQYYPPPPT
notes: human PrpF39; In the co-IP two differently tagged copies (Flag-PrpF39 and HA-PrpF39) were co-transfected; The purified protein carries the Flag tag; also called Flag-PrpF39; HA-PrpF39; source: HEK293FT, transfected (pEF-Bos-Flag-PrpF39 and/or pEF-Bos-HA-PrpF39), in lysate; also purified (anti-Flag M2 agarose, 3x Flag peptide elution, Superose 6 gel filtration)
For B1, the binding entry in assay [1] is on record as “no binding (tested: 1.5 μg purified Flag-PrpF39)”.

B2: yeast Luc7, Q07508 1-261 (protein)
chain: MSTMSTPAAEQRKLVEQLMGRDFSFRHNRYSHQKRDLGLHDPKICKSYLVGECPYDLFQGTKQSLGKCPQMHLTKHKIQYEREVKQGKTFPEFEREYLAILSRFVNECNGQISVALQNLKHTAEERMKIQQVTEELDVLDVRIGLMGQEIDSLIRADEVSMGMLQSVKLQELISKRKEVAKRVRNITENVGQSAQQKLQVCEVCGAYLSRLDTDRRLADHFLGKIHLGYVKMREDYDRLMKNNRTTNASKTATTLPGRRFV
For B2, the binding result in assay [2] is “binds”.

B3: yeast Luc7, co-expressed from plasmid (protein, UniProt Q07508 1-261)
chain: B2 chain
In the case of B3, in assay [3], the binding entry is “binds”.

B4: yeast Snu71, co-expressed from plasmid (protein, UniProt P53207 1-620)
chain: T1 chain
Regarding B4, the binding entry in assay [3] is listed as “binds”.
